Article PMC9508834, “Mechanism of protein-primed template-independent DNA synthesis by Abi polymerases” (Nucleic Acids Research, 2022)
Results are given in words; binding and its absence hold for the method and conditions named.

Molecular target: Ll-AbiK T151W/T369W (Lactococcus lactis) (UniProt Q48614)
Assay: SEC-MALS; Superdex 200 Increase 10/300 GL, 100 μl samples, 20 mM HEPES pH 7.0, 400 mM NaCl, 0.5 mM EDTA, 1 mM DTT; both purified

binding: no binding
B1: Ll-AbiK T151W/T369W (enzyme, UniProt Q48614 1-599)
chain: MKKEFTELYDFIFDPIFLVRYGYYDRSIKNKKMNTAKVELDNEYGKSDSFYFKVFNMESFADYLRSHDLKTHFNGKKPLSTDPVYFNIPKNIEARRQYKMPNLYSYMALNYYICDNKKEFIEVFIDNKFSTSKFFNQLNFDYPKTQEITQWLLYGGIKKLHLDLSNFYHTLYTHSIPWMIDGKSASKQNRKKGFSNTLDTLITACQYDETHGIPTGNLLSRIITELYMCHFDKQMEYKKFVYSRYVDDFIFPFTFENEKQEFLNEFNLICRENNLIINDNKTKVDNFPFVDKSSKSDIFSFFENITSTNSNDKWIKEISNFIDYCVNEEHLGNKGAIKCIFPVITNTLKQKKVDTKNIDNIFSKRNMVWNFNVFEKILDLSLKDSRLTNKFLTFFENINEFGFSSLSASNIVKKYFSNNSKGLKEKIDHYRKNNFNQELYQILLYMVVFEIDDLLNQEELLNLIDLNIDDYSLILGTILYLKNSSYKLEKLLKKIDQLFINTHANYDVKTSRMAEKLWLFRYFFYFLNCKNIFSQKEINSYCQSQNYNSGQNGYQTELNWNYIKGQGKDLRANNFFNELIVKEVWLISCGENEDFKYLN
